These are yes or no findings as the source states them, for the method shown. In cells and extracts the contact can be indirect. For part of these data: A result given as binding can be weak or reduced; the word gives no strength.
Assays:
[1] = target: GFP-pSTING ΔTBM (porcine) (UniProt B8XX90); assay: co-IP; HEK293T cotransfected with the two tagged proteins for 48 h (legends; the methods say 24 h); lysis buffer 50 mM Tris pH 7.2, 150 mM NaCl, 1% sodium deoxycholate, 1% Triton X-100; antibody overnight at 4 °C, protein A/G beads 2 h; co-IP and reverse co-IP; Western blot
[2] = target: GFP-pSTING CTT ΔTBM (porcine) (UniProt B8XX90); assay: as above
[3] = target: pTBK1-HA (porcine TBK1) (porcine); assay: co-IP; 293T cotransfected with 0.5 μg GFP-STING, 0.5 μg TBK1-HA and increasing pIKKε (0.5, 1, 1.5 μg), IP with anti-HA; or 0.5 μg GFP-STING, 0.5 μg mCherry-IKKε and increasing pTBK1 (0.5, 1, 1.5 μg), IP with anti-mCherry; 48 h; Western blot

Protein sequences, listed by entry. Tags and fused reporters are not part of them. Lines headed by an entry give the natural chain unless they say otherwise; changes in a name come on top.
UniProt B8XX90: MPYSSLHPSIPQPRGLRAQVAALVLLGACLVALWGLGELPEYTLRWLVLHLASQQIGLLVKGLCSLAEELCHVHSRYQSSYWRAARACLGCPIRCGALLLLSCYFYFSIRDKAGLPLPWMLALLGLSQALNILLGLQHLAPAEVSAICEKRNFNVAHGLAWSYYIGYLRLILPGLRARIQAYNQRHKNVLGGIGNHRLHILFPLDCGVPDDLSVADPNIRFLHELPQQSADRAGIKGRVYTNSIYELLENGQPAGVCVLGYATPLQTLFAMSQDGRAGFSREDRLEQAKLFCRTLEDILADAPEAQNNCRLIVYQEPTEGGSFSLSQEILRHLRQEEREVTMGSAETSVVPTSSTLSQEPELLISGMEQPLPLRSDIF

B1: mCherry-pIKKε (porcine IKKε) (protein, UniProt M9MMN5 1-718)
chain: MQSTVNYLWHTDDLLGQGATASVYKARNKKSGELVAVKVFNTASYLRPREVQVREFEVLRKLNHQNIIKLFAVEETGGSRQKVLVMEYCSSGSLLSVLESPENAFGLPENEFLVVLRCVVAGMNHLRENGIVHRDIKPGNIMRLVGEEGQSIYKLTDFGAARELDDDEKFVSVYGTEEYLHPDMYEQAVLRKPQQKAFGVTVDLWSIGVTLYHAATGSLPFIPYGGPRRNKEIMYRITSEKPAGAIAGIQKRENGPLEWSYTLPVTCQLSTGLQSQLVPILANILEVEQAKCWGFDQFFAETSDILQRVIVHVFSLPQAVLHHVYVHTHNTIAIFLEAVYEQTNVAPQHQEYLFEGHLCVLEPSLSAQHIAHTTASSPLTLFSVASEIPKGLAFRDPALDIPKFVPKVDLQADYNTAKGVLGAGYQALRLARALLAGQELMLRGLHWFVEILQATCKRTLEVTRMALLFLSSSLGNERSSSVAGVQEIQELKRVAEMRSQLRTLAEVLSRCSHNITETQMTLSNLSSELMKNRDQVHEDRSIQQIQCSLDKMCLIYKQFKKSRMRPGLGYNEEQIHKLDKMNFSHLAKRLLQVFQEERVQKYQASLVTHGKRMRLVHETRNHLRLVGCSVAACNTQAQGAQESLSQILDQLAHQLLQDRTRGAQASPPLMATYPNPGLKDLVLHMQELCEEMKLLACDLQDNNRIIEGLNRVPAAPDI
For B1, the binding [1] was “no binding”, the binding [2] was “no binding” and the binding [3] was “binds”.
